US11274214B2, “Composition of water based coating with a low content of volatile organic compounds and high resistance to dirt handle, and, use of water based coating” (OXITENO S.A. INDÚSTRIA E COMÉRCIO, priority 2017, dated 2022)

Assays:
[1] = Hardness evolution of styrene-acrylic latex films containing 8 pcp coalescent; conditions: drying times greater than or equal to 7 days, FIG. 5
[2] = Plastification efficiency: effect of coalescent on minimum film formation temperature (MFFT/TMFF) of latex; conditions: for MFFT Delta: promoted by 1% of coalescer relative to the polymer, estimated by Touissant formula
[3] = Resistance to dirt grip of semi-gloss paint films (delta E, internal methodology); conditions: semi-gloss paint films dried 82 days; FIG. 14

Molecule	Hardness evolution of polymer films [1]	MFFT Delta [2]	Mean delta E difference versus OPTIFILM 300 [3]	Coalescent content relative to the polymer sufficient to form film at 5° C. ([2]; based on the MFFT results of FIG. 2)	Concentration needed to form latex film at 5° C., lower than the market coalescents by ([2]; styrene-acrylic latex, FIG. 2)
CC(C)C(=O)OCC(C)(C)C(OC(=O)C(C)C)C(C)C (stereo not drawn) [OPTIFILM 300]	does not allow a significant evolution of the hardness	2.4 °C	–	–	–
isopentyl succinate	more pronounced hardness evolution than the films containing Texanol®	3.1 °C	~3	around 6%	20%
CC(C)C(=O)OCC(C)(C)C(O)C(C)C (stereo not drawn) [Texanol]	–	2.4 °C	–	–	–
CCCCC(CC)COC(=O)CCC(=O)OCC(CC)CCCC (stereo not drawn) [2-ethylhexyl succinate, reference compound]	–	0.6 °C	–	–	–
